# In the supplement of paper PMC12823440, “Inhibitors supercharge kinase turnover through native proteolytic circuits” (Nature, 2025):
# Where a name gives a salt, the structure may show the parent alone. The list shows a part of the results. The calls rarely recur for the same compound in another form.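 Kinases were expressed as nanoluciferase fusions in K562 cells and luminescence was read every 4 h between 2 and 18 h as percent of control, DMSO set to 100% and a positive control to 0%. A time point counts as decreased when the signal drops significantly (2 sigma). The hit call is the authors' own, does not follow from the count of time points alone, and its rule is not shown.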
# Molecular target: EGFR (UniProt P00533)
# Assay: number of time points (of 5) at which kinase-Nluc abundance scored as decreased, DMSO-normalised (count); higher = more persistent destabilization
# Settings: K562; 2-18 h
row,Structure (SMILES),number of time points
1,COc1cc(S(C)(=O)=O)ccc1Nc1nc2ccc(-c3ccc(NC(=O)[C@H](C)c4ccc(F)cc4)cc3)cn2n1 [Empesertib] (10 µM),0
2,CO[C@H]1C[C@@H]2CC[C@@H](C)[C@@](O)(O2)C(=O)C(=O)N2CCCC[C@H]2C(=O)O[C@H]([C@H](C)C[C@@H]2CC[C@@H](O)[C@H](OC)C2)CC(=O)[C@H](C)/C=C(\C)[C@@H](O)[C@@H](OC)C(=O)[C@H](C)C[C@H](C)/C=C/C=C/C=C/1C [Rapamycin] (10 µM),0
3,COc1ccc(Cl)cc1NC(=O)Nc1cc(C)nc2ccccc12 (2.5 µM),0
4,CNc1nc(Nc2cnn(C3CCN(C4COC4)CC3F)c2Cl)ncc1C(F)(F)F (stereo not drawn) (10 µM),0
5,Cc1ccc2nc(NC(=O)CSc3nc4c(c(=O)n3-c3ccccc3)SCC4)sc2c1 (2 µM),0
6,Cc1noc(C)c1-c1ccc(-c2cc(C(N)=O)c(NC(N)=O)s2)c(O[C@H]2CCNC2)c1 (10 µM),0
7,Fc1ccc(-c2nc(-c3c(F)cccc3F)[nH]c2-c2ccncc2)cc1 (10 µM),0
8,C=CC(=O)Nc1ccc(CN(C(=O)Nc2c(Cl)c(OC)cc(OC)c2Cl)c2cc(Nc3ccc(N4CCN(C)CC4)cc3)ncn2)cc1 (10 µM),0
9,CCN(CC)c1ccc2cc(C(=O)N3CCN(C(=O)C4=Cc5c(Br)cccc5S4(=O)=O)CC3)c(=O)oc2c1 (2 µM),0
10,CN1CCN(c2ccc(Nc3ncc4nc(Nc5ccccc5)n([C@@H]5CCN(S(=O)(=O)C6CC6)C5)c4n3)cc2)CC1 (2.5 µM),0
11,COCCOc1ccc(-c2cn(-c3ccccc3)c3nc[nH]c(=O)c23)cc1 (10 µM),0
12,CC(C)CC1(O)CCN(C(=O)c2ccc(NS(=O)(=O)c3cccc4nccnc34)cc2)CC1 (10 µM),0
13,Cc1cc(Nc2cc(Cl)nc(Oc3ccc([N+](=O)[O-])cc3)n2)n[nH]1 [Autophinib] (2.5 µM),0
14,O=C(NCCO)c1ccc2c(c1)nc(Nc1cccc(Cl)c1)c1ccncc12 [CK2 inhibitor 2] (10 µM),0
15,COc1ccc(C2CC(c3ccccc3)=NN2c2ccc(S(N)(=O)=O)cc2)cc1 (stereo not drawn) (10 µM),0
16,C[C@@H]1O[C@@H](O[C@H]2[C@H](Oc3cc(O)c4c(=O)cc(-c5ccc(O)cc5)oc4c3)O[C@H](CO)[C@@H](O)[C@@H]2O)[C@H](O)[C@H](O)[C@H]1O [Rhoifolin] (10 µM),0
17,O=[N+]([O-])c1cc(C(F)(F)F)cc([N+](=O)[O-])c1NNC(=S)Nc1ccc(F)cc1 (10 µM),0
18,CCc1cc(O)c(F)cc1-c1ccc2c(-c3nc4c([nH]3)CN(C3CCN(C)CC3)CC4)n[nH]c2c1 [JAK-IN-5 (hydrochloride)] (2 µM),0
19,O=C(Nc1cccnc1)c1cc(C(=O)c2c(F)cccc2Br)c[nH]1 (10 µM),0

row,Structure (SMILES),number of time points
1,COc1ccc2c(c1O)OC(C)(C)c1c-2ccc2c1C(=O)N(c1ccc(C(=O)c3ccccc3)cc1)C2=O [Ampkinone] (10 µM),0
2,CC1CCc2nc(N)c(C#N)c(-c3cccnc3)c2C1 (stereo not drawn) (10 µM),0
3,COc1cc(F)c(F)c(Nc2ccc(I)cc2F)c1NS(=O)(=O)C1(C[C@H](O)CO)CC1 [Refametinib] (10 µM),0
4,Cn1nccc1Nc1nccc(-c2cc3c(s2)C(C)(C)N(CCN2CCOCC2)C3=O)n1 (10 µM),0
5,Cc1ccc(-c2c(C(=O)CCl)n(CCCO)c3ncnc(N)c23)cc1 (10 µM),0
6,N[C@H](Cc1c[nH]c2ccccc12)C(=O)N/N=C/c1ccc2nccnc2c1 [Rhosin (hydrochloride)] (10 µM),0
7,CNCc1ccccc1-c1csc([C@@H](C)Nc2nc(C)nc3cc(OC)c(OC)cc23)c1 (2.5 µM),0
8,Cn1cnc(-c2cc3nccc(Oc4ccc(NC(=S)NC(=O)Cc5ccccc5)cc4F)c3s2)c1 [MGCD-265 analog] (10 µM),1
9,C=C1C(=O)O[C@@H]2C[C@@]3(C)CCC[C@H](C)C3=C[C@H]12 [Alantolactone] (10 µM),0
10,O=C(Nc1ccc(F)cc1F)[C@H](NC(=S)Nc1cc(C(F)(F)F)cc(C(F)(F)F)c1)c1ccccc1 (2.5 µM),0
11,Fc1ccc(-c2nc(-c3ccccc3F)[nH]c2-c2ccncc2)cc1 (2.5 µM),0
12,Cc1ccc(Oc2nc3cc(-c4ccc5c(ccn5C)c4)c(Cl)cc3[nH]2)cc1C(=O)O (10 µM),0
13,COc1ccc([C@H]2c3[nH]c4ccc(Cl)cc4c3CCN2C(=O)Oc2ccc(Cl)cc2)cc1 (2.5 µM),0
14,COc1ncc(-c2nc(N3CCOCC3)nc3c(CN4CCC(C(C)(C)O)CC4)cc(F)cc23)cc1NS(C)(=O)=O [Linperlisib] (10 µM),0
15,C[C@@H](c1ccc2nccn2c1)n1nnc2ncc(-c3cnn(C)c3)nc21 [Savolitinib] (10 µM),0
16,CCn1c(-c2nonc2N)nc2cnc(Oc3cccc(NC(=O)c4ccc(OCCN5CCOCC5)cc4)c3)cc21 (10 µM),0
17,COc1ccc(C(=O)Nc2sc3c(c2C(N)=O)CCCC3)cc1OC (10 µM),0
18,COc1ccc(CC(=O)Nc2nc3c(s2)CCc2ccccc2-3)cc1OC (10 µM),0
19,O=C1Nc2nc(-c3c(O)cccc3OCC3CC3)cc([C@@H]3CCCNC3)c2CO1 [Bay 65-1942 (hydrochloride)] (10 µM),0

# Entries shown so far containing a nitro group on carbon (2):
row,Structure (SMILES),number of time points
13,Cc1cc(Nc2cc(Cl)nc(Oc3ccc([N+](=O)[O-])cc3)n2)n[nH]1 [Autophinib] (2.5 µM),0
17,O=[N+]([O-])c1cc(C(F)(F)F)cc([N+](=O)[O-])c1NNC(=S)Nc1ccc(F)cc1 (10 µM),0
